The list is a part of this screen's results and no random one: it is rich in T/C values a quarter to a half above the control, in often repeated tests (any T/C) and in doses without a T/C. Further doses and runs are listed elsewhere. T/C is the treated group as % of the vehicle group. Some doses have a count of surviving animals in place of a T/C: the source holds a T/C of zero for them, seemingly a mark for toxic or unscored doses. Some survivor counts are full or nearly so, which does not show that the dose was tolerated: the source hardly ever lists a survival T/C far under the control, and the zero likely stands for such cases as well. Counts of survivors are from the toxicity check (mostly the fifth day) where no day follows; animals may have died later. Schedule codes are those of the source, read here as Q, the interval in days (D) or hours (H), X, the number of doses. Signs of the kind (2×) say how often a value occurs here. Some entries were tested several times; the values are given in rising order. Where survival is the endpoint, the PubChem record calls one and a half times the control and up active, and a quarter to a half above the control has no call in these data; cut-offs in other NCI protocols can differ. Some T/C values carry the count of animals alive at the toxicity check (mostly the fifth day); without a count, all were alive then. Some schedules carry Z or #; the key to these is not given.
Test system: L1210 leukemia ip in BDF1 mice, survival T/C
Assay: NCI In Vivo Anticancer Drug Screen. Data for tumor model L1210 Leukemia (intraperitoneal) in B6D2F1 (BDF1) mice
Details: T/C endpoint: mean survival time, higher T/C = longer survival

COc1cccc2c1C(=O)c1c(O)c3c(c(O)c1C2=O)C[C@@](O)(C(=O)CO)C[C@@H]3OC1CC(N)C(O)C(C)O1 (some centres undefined)
survivor count (dose: 2.0 mg/kg/injection, schedule: Q03HX024 (ip), vehicle: water): 8 of 8
T/C (dose: 2.0 mg/kg/injection, schedule: Q## X Z (ip), vehicle: water): 138 % of control
T/C (dose: 2.1 mg/kg/injection, schedule: Q04DX002 (ip), vehicle: saline): 121, 124, 133, 144 % of control
T/C (dose: 2.2 mg/kg/injection, schedule: Q02DX008 (ip), vehicle: clinical formulation): 137 % of control
T/C (dose: 2.2 mg/kg/injection, schedule: Q04DX004 (ip), vehicle: clinical formulation): 128 % of control
T/C (dose: 2.25 mg/kg/injection, schedule: Q01DX015 (ip), vehicle: clinical formulation): 145 % of control
T/C (dose: 2.5 mg/kg/injection, schedule: Q04DX003 (ip), vehicle: water): 146 % of control
T/C (dose: 2.59 mg/kg/injection, schedule: Q01DX001 (ip), vehicle: saline): 147 % of control
T/C (dose: 2.7 mg/kg/injection, schedule: Q01DX004 (ip), vehicle: saline): 130 % of control
T/C (dose: 2.7 mg/kg/injection, schedule: Q01DX009 (ip), vehicle: saline): 120, 151, 172, 183 % of control
T/C (dose: 2.88 mg/kg/injection, schedule: Q04DX003 (ip), vehicle: saline): 139 % of control
T/C (dose: 3.0 mg/kg/injection, schedule: Q01DX001 (ip), vehicle: saline, evaluated on day 5): 142 % of control
T/C (dose: 3.0 mg/kg/injection, schedule: Q01DX001 (ip), vehicle: saline, evaluated on day 60): 142 % of control
T/C (dose: 3.0 mg/kg/injection, schedule: Q01DX001 (sc), vehicle: saline, evaluated on day 5): 94 and 115 % of control
T/C (dose: 3.0 mg/kg/injection, schedule: Q01DX001 (sc), vehicle: saline, evaluated on day 45): 94 and 115 % of control
T/C (dose: 3.0 mg/kg/injection, schedule: Q01DX004 (ip), vehicle: saline): 148 % of control
T/C (dose: 3.0 mg/kg/injection, schedule: Q03HX008 (ip), vehicle: saline, evaluated on day 5): 61 and 94 % of control
T/C (dose: 3.0 mg/kg/injection, schedule: Q03HX008 (ip), vehicle: saline, evaluated on day 60): 94 % of control
survivor count (dose: 3.0 mg/kg/injection, schedule: Q03HX008 (ip), vehicle: saline): 5 of 10
T/C (dose: 3.3 mg/kg/injection, schedule: Q02DX008 (ip), vehicle: clinical formulation): 141 % of control
T/C (dose: 4.0 mg/kg/injection, schedule: Q01DX001 (ip), vehicle: saline): 142 % of control
T/C (dose: 4.0 mg/kg/injection, schedule: Q01DX004 (ip), vehicle: clinical formulation): 125 % of control
T/C (dose: 4.0 mg/kg/injection, schedule: Q01DX004 (ip), vehicle: saline, evaluated on day 30): 86 % of control
T/C (dose: 4.0 mg/kg/injection, schedule: Q01DX004 (ip), vehicle: saline, evaluated on day 60): 100 (2×) and 113 % of control
survivor count (dose: 4.0 mg/kg/injection, schedule: Q01DX004 (ip), vehicle: saline): 6 of 6
T/C (dose: 4.0 mg/kg/injection, schedule: Q01DX007 (ip), vehicle: water): 140 % of control
survivor count (dose: 4.0 mg/kg/injection, schedule: Q03HX008 (ip), vehicle: water): 3 of 8 and 8 of 8
T/C (dose: 4.0 mg/kg/injection, schedule: Q## X Z (ip), vehicle: water): 126 % of control
T/C (dose: 4.2 mg/kg/injection, schedule: Q04DX002 (ip), vehicle: saline): 117, 126, 138, 175 % of control
T/C (dose: 4.4 mg/kg/injection, schedule: Q01DX001 (ip), vehicle: clinical formulation): 139 % of control
T/C (dose: 4.8 mg/kg/injection, schedule: Q04DX003 (ip), vehicle: saline): 144 % of control
T/C (dose: 5.0 mg/kg/injection, schedule: Q04DX004 (ip), vehicle: clinical formulation): 139 % of control
T/C (dose: 6.0 mg/kg/injection, schedule: Q01DX001 (sc), vehicle: saline, evaluated on day 5): 102 and 122 % of control
T/C (dose: 6.0 mg/kg/injection, schedule: Q01DX001 (sc), vehicle: saline, evaluated on day 45): 102 and 122 % of control
survivor count (dose: 6.0 mg/kg/injection, schedule: Q01DX004 (ip), vehicle: saline): 10 of 10, 6 of 6, 8 of 8 (2×)
T/C (dose: 6.7 mg/kg/injection, schedule: Q01DX001 (ip), vehicle: clinical formulation): 140 % of control
T/C (dose: 7.5 mg/kg/injection, schedule: Q01DX001 (sc), vehicle: saline, evaluated on day 5): 115 and 122 % of control
T/C (dose: 7.5 mg/kg/injection, schedule: Q01DX001 (sc), vehicle: saline, evaluated on day 60): 115 and 122 % of control
T/C (dose: 7.5 mg/kg/injection, schedule: Q04DX004 (ip), vehicle: clinical formulation): 140 % of control
survivor count (dose: 8.0 mg/kg/injection, schedule: Q01DX004 (ip), vehicle: saline): 8 of 8 (2×)
survivor count (dose: 8.0 mg/kg/injection, schedule: Q01DX008 (ip), vehicle: saline): 7 of 8
T/C (dose: 8.0 mg/kg/injection, schedule: Q04DX003 (ip), vehicle: saline): 139 % of control
survivor count (dose: 8.0 mg/kg/injection, schedule: Q06HX004 (ip), vehicle: water): 7 of 8
T/C (dose: 10.0 mg/kg/injection, schedule: Q01DX001 (sc), vehicle: saline, evaluated on day 5): 114 and 128 % of control
T/C (dose: 10.0 mg/kg/injection, schedule: Q01DX001 (sc), vehicle: saline, evaluated on day 60): 114 and 128 % of control
T/C (dose: 10.0 mg/kg/injection, schedule: Q04DX003 (ip), vehicle: water): 129 % of control
T/C (dose: 12.0 mg/kg/injection, schedule: Q01DX001 (sc), vehicle: saline, evaluated on day 5): 113 and 125 % of control
T/C (dose: 12.0 mg/kg/injection, schedule: Q01DX001 (sc), vehicle: saline, evaluated on day 45): 113 and 125 % of control [9 of 10 alive]
T/C (dose: 12.5 mg/kg/injection, schedule: Q01DX001 (sc), vehicle: saline, evaluated on day 5): 138 and 162 % of control
T/C (dose: 12.5 mg/kg/injection, schedule: Q01DX001 (sc), vehicle: saline, evaluated on day 60): 138 and 162 % of control
T/C (dose: 15.0 mg/kg/injection, schedule: Q01DX001 (sc), vehicle: saline, evaluated on day 5): 124 and 131 % of control
T/C (dose: 15.0 mg/kg/injection, schedule: Q01DX001 (sc), vehicle: saline, evaluated on day 60): 124 and 131 % of control
survivor count (dose: 20.0 mg/kg/injection, schedule: Q01DX001 (ip), vehicle: saline): 8 of 10
survivor count (dose: 40.0 mg/kg/injection, schedule: Q01DX001 (ip), vehicle: saline): 4 of 10
